Three substances from paper doi:10.1101/2021.06.28.447216 can be followed below.

The chains behind the UniProt entries cited, without tags or fusion partners.
UniProt P83916: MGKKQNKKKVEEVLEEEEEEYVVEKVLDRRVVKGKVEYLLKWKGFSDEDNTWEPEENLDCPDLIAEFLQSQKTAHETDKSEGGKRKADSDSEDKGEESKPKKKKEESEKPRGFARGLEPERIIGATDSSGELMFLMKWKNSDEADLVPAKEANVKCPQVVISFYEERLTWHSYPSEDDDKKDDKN
UniProt Q13185: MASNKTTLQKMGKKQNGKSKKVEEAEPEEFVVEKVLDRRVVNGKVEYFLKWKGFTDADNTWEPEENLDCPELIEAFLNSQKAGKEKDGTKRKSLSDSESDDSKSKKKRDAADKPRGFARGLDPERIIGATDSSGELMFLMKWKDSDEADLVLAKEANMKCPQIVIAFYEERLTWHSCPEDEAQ
UniProt P45973: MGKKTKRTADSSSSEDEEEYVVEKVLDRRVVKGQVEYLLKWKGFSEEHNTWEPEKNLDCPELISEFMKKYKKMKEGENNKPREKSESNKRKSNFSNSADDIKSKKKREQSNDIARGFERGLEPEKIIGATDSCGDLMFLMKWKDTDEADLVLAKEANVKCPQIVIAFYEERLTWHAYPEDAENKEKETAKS
UniProt Q9H9B1: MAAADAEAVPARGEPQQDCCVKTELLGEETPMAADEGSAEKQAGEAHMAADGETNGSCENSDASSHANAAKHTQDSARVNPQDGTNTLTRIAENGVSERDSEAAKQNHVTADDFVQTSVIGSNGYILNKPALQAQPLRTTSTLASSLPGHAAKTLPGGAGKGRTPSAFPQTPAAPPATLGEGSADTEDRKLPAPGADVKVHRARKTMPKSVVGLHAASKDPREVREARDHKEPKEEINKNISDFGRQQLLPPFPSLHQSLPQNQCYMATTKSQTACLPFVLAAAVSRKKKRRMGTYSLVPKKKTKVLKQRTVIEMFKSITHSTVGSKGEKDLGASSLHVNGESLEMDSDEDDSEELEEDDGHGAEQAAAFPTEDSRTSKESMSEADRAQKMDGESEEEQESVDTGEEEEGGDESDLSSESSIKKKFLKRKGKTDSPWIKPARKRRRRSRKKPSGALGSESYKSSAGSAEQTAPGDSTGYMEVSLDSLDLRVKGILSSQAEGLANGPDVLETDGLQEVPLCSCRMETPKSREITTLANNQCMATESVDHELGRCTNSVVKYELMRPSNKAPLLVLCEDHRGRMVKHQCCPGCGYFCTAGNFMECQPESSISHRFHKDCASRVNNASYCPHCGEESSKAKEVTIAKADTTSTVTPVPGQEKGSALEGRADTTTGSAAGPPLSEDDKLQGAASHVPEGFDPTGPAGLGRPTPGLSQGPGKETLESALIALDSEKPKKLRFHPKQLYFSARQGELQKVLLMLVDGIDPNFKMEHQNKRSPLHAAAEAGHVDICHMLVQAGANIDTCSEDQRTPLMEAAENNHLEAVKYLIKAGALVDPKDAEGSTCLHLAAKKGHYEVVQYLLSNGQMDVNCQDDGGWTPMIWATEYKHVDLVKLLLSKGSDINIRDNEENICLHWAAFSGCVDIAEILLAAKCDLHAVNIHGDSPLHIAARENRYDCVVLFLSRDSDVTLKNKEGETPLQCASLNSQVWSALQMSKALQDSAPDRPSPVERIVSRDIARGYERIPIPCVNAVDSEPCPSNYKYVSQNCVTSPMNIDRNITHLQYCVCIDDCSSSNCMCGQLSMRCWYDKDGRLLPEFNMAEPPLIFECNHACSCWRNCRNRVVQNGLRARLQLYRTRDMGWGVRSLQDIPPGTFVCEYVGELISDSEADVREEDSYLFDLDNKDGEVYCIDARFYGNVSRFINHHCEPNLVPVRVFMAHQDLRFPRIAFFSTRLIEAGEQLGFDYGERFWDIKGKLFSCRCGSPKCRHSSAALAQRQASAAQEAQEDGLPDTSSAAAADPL
UniProt O75367: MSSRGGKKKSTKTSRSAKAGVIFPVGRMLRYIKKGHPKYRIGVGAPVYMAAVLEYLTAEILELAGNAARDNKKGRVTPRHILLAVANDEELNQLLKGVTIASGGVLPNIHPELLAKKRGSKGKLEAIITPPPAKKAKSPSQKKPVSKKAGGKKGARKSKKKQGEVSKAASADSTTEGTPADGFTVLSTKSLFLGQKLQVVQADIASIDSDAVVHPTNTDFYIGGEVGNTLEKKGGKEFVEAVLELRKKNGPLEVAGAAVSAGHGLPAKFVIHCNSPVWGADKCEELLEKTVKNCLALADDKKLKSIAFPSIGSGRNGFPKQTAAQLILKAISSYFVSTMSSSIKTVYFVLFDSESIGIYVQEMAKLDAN
UniProt O95785: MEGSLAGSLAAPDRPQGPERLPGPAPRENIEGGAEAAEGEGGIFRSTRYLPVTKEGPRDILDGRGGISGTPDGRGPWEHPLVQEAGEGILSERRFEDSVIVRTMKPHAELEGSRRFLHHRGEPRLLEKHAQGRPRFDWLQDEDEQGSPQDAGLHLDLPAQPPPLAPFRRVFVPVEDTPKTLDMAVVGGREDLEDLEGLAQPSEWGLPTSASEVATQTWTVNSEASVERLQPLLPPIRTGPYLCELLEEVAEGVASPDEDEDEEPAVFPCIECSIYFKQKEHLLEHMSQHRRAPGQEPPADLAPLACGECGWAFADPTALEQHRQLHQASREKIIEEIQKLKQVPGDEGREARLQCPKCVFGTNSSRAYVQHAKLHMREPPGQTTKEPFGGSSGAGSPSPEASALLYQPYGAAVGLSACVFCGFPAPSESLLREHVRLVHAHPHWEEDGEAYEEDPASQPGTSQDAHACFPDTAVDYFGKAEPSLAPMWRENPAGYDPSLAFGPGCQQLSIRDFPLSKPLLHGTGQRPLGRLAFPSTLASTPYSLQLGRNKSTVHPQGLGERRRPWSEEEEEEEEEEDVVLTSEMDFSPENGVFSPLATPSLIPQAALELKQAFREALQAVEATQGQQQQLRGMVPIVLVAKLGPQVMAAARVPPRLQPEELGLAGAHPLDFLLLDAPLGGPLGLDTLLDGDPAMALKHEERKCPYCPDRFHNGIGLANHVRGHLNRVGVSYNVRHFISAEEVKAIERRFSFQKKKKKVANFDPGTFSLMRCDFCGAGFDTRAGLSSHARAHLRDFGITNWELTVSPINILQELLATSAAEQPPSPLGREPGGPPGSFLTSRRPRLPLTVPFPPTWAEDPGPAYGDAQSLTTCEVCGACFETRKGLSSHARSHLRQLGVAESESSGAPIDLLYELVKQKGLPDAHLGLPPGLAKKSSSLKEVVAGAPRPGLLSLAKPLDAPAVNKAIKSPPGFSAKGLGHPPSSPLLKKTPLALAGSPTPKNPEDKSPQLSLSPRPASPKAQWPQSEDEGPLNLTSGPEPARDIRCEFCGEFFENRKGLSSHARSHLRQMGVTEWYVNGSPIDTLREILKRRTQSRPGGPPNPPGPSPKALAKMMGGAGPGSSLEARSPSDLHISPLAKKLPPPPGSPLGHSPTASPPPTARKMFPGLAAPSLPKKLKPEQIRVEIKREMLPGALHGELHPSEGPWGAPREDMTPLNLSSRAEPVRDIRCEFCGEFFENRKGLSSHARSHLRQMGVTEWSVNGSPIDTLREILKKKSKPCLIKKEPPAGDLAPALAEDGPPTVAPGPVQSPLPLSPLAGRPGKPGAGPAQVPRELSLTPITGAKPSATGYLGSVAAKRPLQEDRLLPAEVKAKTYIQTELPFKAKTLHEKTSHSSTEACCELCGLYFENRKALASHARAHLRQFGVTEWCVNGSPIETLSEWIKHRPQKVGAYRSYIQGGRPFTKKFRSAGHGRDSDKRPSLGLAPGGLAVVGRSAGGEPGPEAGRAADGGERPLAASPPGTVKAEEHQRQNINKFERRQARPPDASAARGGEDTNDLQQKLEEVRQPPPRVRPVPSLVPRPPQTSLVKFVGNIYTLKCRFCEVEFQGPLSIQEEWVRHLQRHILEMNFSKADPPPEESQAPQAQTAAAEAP

These are yes or no findings as the source states them, for the method shown. Binding seen in cells or lysates may run through a third protein. These calls come from enrichment with a bait or labelling near it, and not all partners need be listed.

Holding throughout (test): proximity labelling
Assay [1] addresses Flag-BirA*HP1-β (human) (UniProt P83916).
Assay [2] concerns the target Flag-BirA*HP1-γ (human) (UniProt Q13185).
The target of assay [3] is Flag-BirA*HP1-α (human) (UniProt P45973).

Regarding EHMT1 (from UniProt Q9H9B1 1-1298), the binding entry in assay [1] and in assay [2] was “binds” in each case.
Regarding H2AFY (from UniProt O75367 1-369), the binding entry in assay [1] and in assay [2] was “binds” each time.
For WIZ (from UniProt O95785 1-1651), the binding result in assay [1], in assay [2] and in assay [3] was “binds” each time.
